Data taken from US20140357641A1, “IP receptor agonist heterocyclic compounds” (NOVARTIS AG, priority 2012, published 2014).

By UniProt entry, the sequences of proteins in these tests, tags left out. Where a name states a change or a piece, a line headed by the entry shows the natural chain unless it says otherwise.
UniProt P43119: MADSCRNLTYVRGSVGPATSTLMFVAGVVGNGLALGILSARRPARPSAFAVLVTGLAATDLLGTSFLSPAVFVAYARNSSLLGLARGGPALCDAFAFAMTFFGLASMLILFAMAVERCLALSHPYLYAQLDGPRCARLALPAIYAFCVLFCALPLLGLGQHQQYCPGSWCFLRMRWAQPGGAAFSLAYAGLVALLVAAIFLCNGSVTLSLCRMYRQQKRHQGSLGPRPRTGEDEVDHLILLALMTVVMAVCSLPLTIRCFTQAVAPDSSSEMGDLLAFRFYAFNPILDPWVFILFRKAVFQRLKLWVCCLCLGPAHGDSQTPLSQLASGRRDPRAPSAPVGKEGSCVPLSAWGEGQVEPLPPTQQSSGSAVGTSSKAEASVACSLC

Target: T1, IP receptor (Homo sapiens, UniProt P43119)
T1 construct: expressed in transfected cells
Experiment: cAMP accumulation in CHO cells stably expressing the IP receptor (CHO-IP), Perkin Elmer AlphaScreen assay
Format: cell-based
Settings: agonist activity, 1 hour at room temperature
Description: Activity of compounds at the IP receptor (IP receptor) is assessed by measuring cAMP accumulation in CHO cells stably expressing the IP receptor (CHO-IP) using the Perkin Elmer AlphaScreen assay. This technology measures the endogenous production of cAMP, in a non-radioactive luminescence proximity homogenous assay. A biological reaction occurs between streptavidin coated donor beads, biotinylated cAMP and anti-cAMP acceptor beads, bringing the donor and acceptor beads close enough together so that upon excitation a fluorescence signal is produced. On production of endogenous cAMP, competition between the biotinylated cAMP and cellular-derived cAMP causes a reduction in the fluorescent signal. The reduction in signal is proportional to the amount of cAMP being produced, thus it is possible to quantify the amount of cAMP being produced on stimulation with agonist.
Test and reference compounds are prepared at 100× [final] in 100% DMSO, and diluted 1:3 using a Biomek Fx (Beckman Coulter). This is followed by an intermediate dilution to give 5× [final] in assay buffer (HBSS containing 5 mM HEPES, 0.1% (w/v) BSA). […] The assay plate is then incubated at room temperature in the dark, for 60 minutes with gentle shaking, and read on the Envision plate reader (Perkin Elmer). […]

EC50: 3.62 nM
SMILES: Cc1ccc(-c2nc3c(nc2-c2ccc(C)cc2)N(CCCCCC2SC(=O)NC2=O)CCC3)cc1 (stereo not shown) [Example 2, 5-(5-(2,3-Di-p-tolyl-7,8-dihydropyrido[2,3-b]pyrazin-5(6H)-yl)pentyl)thiazolidine-2,4-dione]
